Patent publication US20190169250A1
Results are given in words; binding and its absence hold for the method and conditions named. Some binding calls cover weakened binding; strength is not graded here. Where a sequence is shown, tags or fusion partners need not be part of it.

Amino acid sequences for entries named in this document (tags omitted). Residues count along the entry.
11A12, a recombinantly expressed ED-A (P02751, residues 1632-1903): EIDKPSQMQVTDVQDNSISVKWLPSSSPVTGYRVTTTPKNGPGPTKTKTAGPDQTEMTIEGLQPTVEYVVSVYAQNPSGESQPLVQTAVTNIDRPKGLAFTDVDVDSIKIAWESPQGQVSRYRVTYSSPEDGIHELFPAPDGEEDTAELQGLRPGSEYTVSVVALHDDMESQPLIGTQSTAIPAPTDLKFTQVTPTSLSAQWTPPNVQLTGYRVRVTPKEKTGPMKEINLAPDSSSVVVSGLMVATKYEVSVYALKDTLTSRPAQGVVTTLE
Recombinant EDA-domain (P02751, residues 1722-1811): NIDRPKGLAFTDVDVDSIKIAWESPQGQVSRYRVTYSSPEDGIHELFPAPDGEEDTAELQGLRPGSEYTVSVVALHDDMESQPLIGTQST

Legend:
[1] = target: 11A12, a recombinantly expressed ED-A (UniProt P02751); test: SPR (Biacore 3000), 11A12 coated chip
Recombinant EDA-domain [2] = target: Recombinant EDA-domain (UniProt P02751); test: ELISA on immobilized recombinant EDA-domain
Recombinant EDA-domain [3] = target: Recombinant EDA-domain (UniProt P02751); test: ELISA, ED-A coated wells, protein A-HRP detection
[4] = target: 11A12, a recombinantly expressed ED-A (UniProt P02751); test: SPR (Biacore), ED-A coated chip

Measured: binding

B1: muIL22-F8 fusion protein (protein)
chain: LPVNTRCKLEVSNFQQPYIVNRTFMLAKEASLADNNTDVRLIGEKLFRGVSAKDQCYLMKQVLNFTLEDVLLPQSDRFQPYMQEVVPFLTKLSNQLSSCHISGDDQNIQKNVRRLKETVKKLGESGEIKAIGELDLLFMSLRNACVGGGGSGGGGSGGGGSEVQLLESGGGLVQPGGSLRLSCAASGFTFSLFTMSWVRQAPGKGLEWVSAISGSGGSTYYADSVKGRFTISRDNSKNTLYLQMNSLRAEDTAVYYCAKSTHLYLFDYWGQGTLVTVSSGGSGGEIVLTQSPGTLSLSPGERATLSCRASQSVSMPFLAWYQQKPGQAPRLLIYGASSRATGIPDRFSGSGSGTDFTLTISRLEPEDFAVYYCQQMRGRPPTFGQGTKVEIK
binds: all assays above

B2: F8-muIL22 fusion protein (protein)
chain: EVQLLESGGGLVQPGGSLRLSCAASGFTFSLFTMSWVRQAPGKGLEWVSAISGSGGSTYYADSVKGRFTISRDNSKNTLYLQMNSLRAEDTAVYYCAKSTHLYLFDYWGQGTLVTVSSGGSGGEIVLTQSPGTLSLSPGERATLSCRASQSVSMPFLAWYQQKPGQAPRLLIYGASSRATGIPDRFSGSGSGTDFTLTISRLEPEDFAVYYCQQMRGRPPTFGQGTKVEIKGGGGSGGGGSGGGGSLPVNTRCKLEVSNFQQPYIVNRTFMLAKEASLADNNTDVRLIGEKLFRGVSAKDQCYLMKQVLNFTLEDVLLPQSDRFQPYMQEVVPFLTKLSNQLSSCHISGDDQNIQKNVRRLKETVKKLGESGEIKAIGELDLLFMSLRNACV
binds: all assays above
